Source: PMC9260856
No constants are given. Whether binding was seen depends on the method and setting. In cells and extracts the contact can be indirect. Here binding means that the protein was enriched with, or labelled near, the bait; the list need not be complete. Sequences can lack the tags named with a protein.

T1: StrepII-FLAG-tagged ZXDA (SF-ZXDA), inducibly expressed in HeLa cells (human) (UniProt P98168)
T1 sequence: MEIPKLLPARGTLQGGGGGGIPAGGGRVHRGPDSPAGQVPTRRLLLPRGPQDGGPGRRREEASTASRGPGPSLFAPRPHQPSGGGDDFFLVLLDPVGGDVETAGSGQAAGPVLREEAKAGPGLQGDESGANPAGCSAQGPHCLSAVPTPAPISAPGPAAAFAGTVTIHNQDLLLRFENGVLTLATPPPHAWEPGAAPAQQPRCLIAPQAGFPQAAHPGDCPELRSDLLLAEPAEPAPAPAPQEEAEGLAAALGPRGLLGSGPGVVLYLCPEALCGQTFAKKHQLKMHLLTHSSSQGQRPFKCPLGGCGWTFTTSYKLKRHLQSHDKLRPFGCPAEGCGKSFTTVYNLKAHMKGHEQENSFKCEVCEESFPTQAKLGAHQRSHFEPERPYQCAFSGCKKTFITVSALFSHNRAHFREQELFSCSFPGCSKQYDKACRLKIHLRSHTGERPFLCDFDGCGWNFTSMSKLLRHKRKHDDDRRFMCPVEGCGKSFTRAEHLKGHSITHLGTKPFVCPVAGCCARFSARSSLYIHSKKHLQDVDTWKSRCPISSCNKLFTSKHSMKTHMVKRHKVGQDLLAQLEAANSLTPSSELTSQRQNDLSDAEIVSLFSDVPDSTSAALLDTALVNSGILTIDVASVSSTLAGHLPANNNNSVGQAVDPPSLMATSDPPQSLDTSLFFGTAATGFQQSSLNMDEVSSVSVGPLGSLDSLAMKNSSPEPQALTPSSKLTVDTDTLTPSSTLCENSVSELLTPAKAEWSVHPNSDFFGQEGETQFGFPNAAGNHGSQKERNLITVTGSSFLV

T2: StrepII-FLAG-tagged FBXO38 (SF-FBXO38), expressed in HeLa cells (human) (UniProt Q6PIJ6)
T2 sequence: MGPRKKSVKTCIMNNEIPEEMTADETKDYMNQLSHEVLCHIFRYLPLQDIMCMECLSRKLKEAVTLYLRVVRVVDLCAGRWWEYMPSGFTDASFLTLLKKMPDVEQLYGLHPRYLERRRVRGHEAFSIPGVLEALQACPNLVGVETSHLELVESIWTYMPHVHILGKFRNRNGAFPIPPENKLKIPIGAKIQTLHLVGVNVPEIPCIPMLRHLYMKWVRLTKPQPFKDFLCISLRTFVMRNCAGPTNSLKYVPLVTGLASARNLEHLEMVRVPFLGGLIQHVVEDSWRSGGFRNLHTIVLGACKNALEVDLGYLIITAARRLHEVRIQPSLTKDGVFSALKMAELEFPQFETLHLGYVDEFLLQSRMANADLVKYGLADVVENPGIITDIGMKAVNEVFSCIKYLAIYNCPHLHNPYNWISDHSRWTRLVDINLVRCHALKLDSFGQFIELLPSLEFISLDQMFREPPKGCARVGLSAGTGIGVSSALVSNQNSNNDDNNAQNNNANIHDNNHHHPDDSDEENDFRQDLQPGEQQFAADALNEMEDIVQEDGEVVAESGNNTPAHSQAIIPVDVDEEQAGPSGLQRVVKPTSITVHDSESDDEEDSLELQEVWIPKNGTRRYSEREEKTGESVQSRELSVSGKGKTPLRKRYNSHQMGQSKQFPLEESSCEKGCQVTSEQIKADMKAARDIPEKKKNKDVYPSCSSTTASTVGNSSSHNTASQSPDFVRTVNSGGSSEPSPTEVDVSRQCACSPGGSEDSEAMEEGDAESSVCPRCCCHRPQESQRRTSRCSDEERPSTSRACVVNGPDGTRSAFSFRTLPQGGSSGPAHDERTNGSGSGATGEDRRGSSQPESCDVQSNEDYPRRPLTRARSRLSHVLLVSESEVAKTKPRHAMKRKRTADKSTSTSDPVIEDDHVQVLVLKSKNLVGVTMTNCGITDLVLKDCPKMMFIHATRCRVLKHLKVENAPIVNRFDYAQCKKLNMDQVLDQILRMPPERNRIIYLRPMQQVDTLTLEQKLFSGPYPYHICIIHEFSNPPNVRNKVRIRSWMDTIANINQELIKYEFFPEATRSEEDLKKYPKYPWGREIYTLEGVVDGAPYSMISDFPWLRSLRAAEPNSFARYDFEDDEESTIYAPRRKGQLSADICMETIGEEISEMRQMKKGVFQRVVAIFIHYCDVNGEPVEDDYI


How the values were obtained:
[1] = molecular target: T1, StrepII-FLAG-tagged ZXDA (SF-ZXDA), inducibly expressed in HeLa cells (human); assay: affinity purification with mass spectrometry; SF-ZXDA affinity-purified from stably transfected HeLa cells with inducible expression, whole-cell lysates prepared with turbonuclease, LC-MS/MS
[2] = molecular target: T2, StrepII-FLAG-tagged FBXO38 (SF-FBXO38), expressed in HeLa cells (human); assay: affinity purification with mass spectrometry; SF-FBXO38 affinity-purified from HeLa cells, LC-MS/MS; parental HeLa cells as negative control

Binder	binding [1]	binding [2]
centromere protein B (CENP-B), endogenous in HeLa cells (protein, UniProt P07199 1-599) MGPKRRQLTFREKSRIIQEVEENPDLRKGEIARRFNIPPSTLSTILKNKRAILASERKYGVASTCRKTNKLSPYDKLEGLLIAWFQQIRAAGLPVKGIILKEKALRIAEELGMDDFTASNGWLDRFRRRHGVVSCSGVARARARNAAPRTPAAPASPAAVPSEGSGGSTTGWRAREEQPPSVAEGYASQDVFSATETSLWYDFLPDQAAGLCGGDGRPRQATQRLSVLLCANADGSEKLPPLVAGKSAKPRAGQAGLPCDYTANSKGGVTTQALAKYLKALDTRMAAESRRVLLLAGRLAAQSLDTSGLRHVQLAFFPPGTVHPLERGVVQQVKGHYRQAMLLKAMAALEGQDPSGLQLGLTEALHFVAAAWQAVEPSDIAACFREAGFGGGPNATITTSLKSEGEEEEEEEEEEEEEEGEGEEEEEEGEEEEEEGGEGEELGEEEEVEEEGDVDSDEEEEEDEESSSEGLEAEDWAQGVVEAGGSFGAYGAQEEAQCPTLHFLEGGEDSDSDSEEEDDEEEDDEDEDDDDDEEDGDEVPVPSFGEAMAYFAMVKRYLTSFPIDDRVQSHILHLEHDLVHVTRKNHARQAGVRGLGHQS	binds	
DEDD2, endogenous in HeLa cells (protein, UniProt Q8WXF8 1-326) MALSGSTPAPCWEEDECLDYYGMLSLHRMFEVVGGQLTECELELLAFLLDEAPGAAGGLARARSGLELLLELERRGQCDESNLRLLGQLLRVLARHDLLPHLARKRRRPVSPERYSYGTSSSSKRTEGSCRRRRQSSSSANSQQGQWETGSPPTKRQRRSRGRPSGGARRRRRGAPAAPQQQSEPARPSSEGKVTCDIRLRVRAEYCEHGPALEQGVASRRPQALARQLDVFGQATAVLRSRDLGSVVCDIKFSELSYLDAFWGDYLSGALLQALRGVFLTEALREAVGREAVRLLVSVDEADYEAGRRRLLLMEEEGGRRPTEAS		binds
FAM172A, endogenous in HeLa cells (protein, UniProt Q8WUF8 19-416) QIQQGGPDEKEKTTALKDLLSRIDLDELMKKDEPPLDFPDTLEGFEYAFNEKGQLRHIKTGEPFVFNYREDLHRWNQKRYEALGEIITKYVYELLEKDCNLKKVSIPVDATESEPKSFIFMSEDALTNPQKLMVLIHGSGVVRAGQWARRLIINEDLDSGTQIPFIKRAVAEGYGVIVLNPNENYIEVEKPKIHVQSSSDSSDEPAEKRERKDKVSKETKKRRDFYEKYRNPQREKEMMQLYIRENGSPEEHAIYVWDHFIAQAAAENVFFVAHSYGGLAFVELMIQREADVKNKVTAVALTDSVHNVWHQEAGKTIREWMRENCCNWVSSSEPLDTSVESMLPDCPRVSAGTDRHELTSWKSFPSIFKFFTEASEAKTSSLKPAVTRRSHRIKHEEL		binds
